Laboratory results from US20160159914A1.
Results are given in words; binding and its absence hold for the method and conditions named. Some entries that bind do so weakly or less than the wild type. For some of these results: Where a sequence is shown, tags or fusion partners need not be part of it.

Protein sequences, listed by entry. Tags and fused reporters are not part of them. Residues count along the entry.
UniProt Q96F46, residues 33-320: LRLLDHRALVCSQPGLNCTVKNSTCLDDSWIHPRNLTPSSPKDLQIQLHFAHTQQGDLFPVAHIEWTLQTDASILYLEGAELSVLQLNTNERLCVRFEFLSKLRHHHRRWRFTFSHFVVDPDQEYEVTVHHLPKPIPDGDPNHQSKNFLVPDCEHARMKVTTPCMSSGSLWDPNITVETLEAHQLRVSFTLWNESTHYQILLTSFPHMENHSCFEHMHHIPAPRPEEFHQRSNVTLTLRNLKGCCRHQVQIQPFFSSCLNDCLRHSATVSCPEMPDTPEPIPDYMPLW
UniProt Q16552, residues 24-155: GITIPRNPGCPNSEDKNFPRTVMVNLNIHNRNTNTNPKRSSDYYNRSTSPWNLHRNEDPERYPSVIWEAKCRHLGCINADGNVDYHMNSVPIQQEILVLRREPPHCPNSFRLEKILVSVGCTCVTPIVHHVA

T1: IL-17RE-FC (Amgen) (UniProt Q8NFR9)
T1 sequence (looked up): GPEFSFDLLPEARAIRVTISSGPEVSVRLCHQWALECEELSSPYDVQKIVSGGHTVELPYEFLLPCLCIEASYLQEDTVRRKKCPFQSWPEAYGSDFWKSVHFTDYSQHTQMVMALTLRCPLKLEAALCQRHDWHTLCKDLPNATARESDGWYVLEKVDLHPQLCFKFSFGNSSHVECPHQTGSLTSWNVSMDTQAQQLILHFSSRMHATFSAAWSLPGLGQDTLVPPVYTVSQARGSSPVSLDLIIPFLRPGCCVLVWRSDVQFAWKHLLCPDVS

B1: IL-17C-His-Avi (Amgen) (ligand, UniProt Q9P0M4 19-197, looked up, not shown: small tags and cut ends)
chain: HHDPSLRGHPHSHGTPHCYSAEELPLGQAPPHLLARGAKWGQALPVALVSSLEAASHRGRHERPSATTQCPVLRPEEVLEADTHQRSISPWRYRVDTDEDRYPQKLAFAECLCRGCIDARTGRETAALNSVRLLQSLLVLRRRPCSRDGSGLPTPGAFAFHTEFIHVPVGCTCVLPRSV

Experiments:
[1] = target: IL-17RA-FC (R&D Systems) Catalog#177-IR (human) (UniProt Q96F46); test: AlphaScreen, His-tagged ligand with Fc-tagged receptor
[2] = target: IL-17RA-FC (R&D Systems) Catalog#177-IR (human) (UniProt Q96F46); test: AlphaScreen, His-tagged ligand with Fc-tagged receptor (figure legend)
IL-17RE-FC (Amgen) [3] = target: T1, IL-17RE-FC (Amgen); test: AlphaScreen, His-tagged ligand with Fc-tagged receptor
IL-17RE-FC (Amgen) [4] = target: T1, IL-17RE-FC (Amgen); test: AlphaScreen, His-tagged ligand with Fc-tagged receptor (figure legend)

Row | Molecule | binding [1] | binding [2] | binding (IL-17RE-FC (Amgen) [3]) | binding (IL-17RE-FC (Amgen) [4])
1 | IL-17A-His (Amgen) (from UniProt Q16552 24-155) (ligand) | binds | binds | – | –
2 | B1 | – | – | binds | binds
